# Measurements from the supplement of paper PMC12067093, “Discovery and optimisation of a covalent ligand for TRIM25 and its application to targeted protein ubiquitination” (Chemical Science, 2025).
# Amino acid sequences for entries named in this document (tags omitted). A change or cut given only in a name is not applied to a line headed by its entry.
# UniProt Q8IV38: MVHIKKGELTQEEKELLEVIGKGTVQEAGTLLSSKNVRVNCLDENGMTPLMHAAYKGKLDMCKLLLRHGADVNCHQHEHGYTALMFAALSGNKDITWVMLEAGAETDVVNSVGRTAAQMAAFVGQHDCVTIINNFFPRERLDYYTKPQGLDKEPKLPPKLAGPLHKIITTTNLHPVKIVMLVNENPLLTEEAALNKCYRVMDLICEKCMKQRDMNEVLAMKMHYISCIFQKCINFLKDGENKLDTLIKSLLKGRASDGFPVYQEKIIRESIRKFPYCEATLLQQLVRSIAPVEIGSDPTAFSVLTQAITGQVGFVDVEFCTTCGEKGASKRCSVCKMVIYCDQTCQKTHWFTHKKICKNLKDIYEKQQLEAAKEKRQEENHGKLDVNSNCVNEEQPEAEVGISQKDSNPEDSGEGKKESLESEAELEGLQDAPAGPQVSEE
# UniProt O43747: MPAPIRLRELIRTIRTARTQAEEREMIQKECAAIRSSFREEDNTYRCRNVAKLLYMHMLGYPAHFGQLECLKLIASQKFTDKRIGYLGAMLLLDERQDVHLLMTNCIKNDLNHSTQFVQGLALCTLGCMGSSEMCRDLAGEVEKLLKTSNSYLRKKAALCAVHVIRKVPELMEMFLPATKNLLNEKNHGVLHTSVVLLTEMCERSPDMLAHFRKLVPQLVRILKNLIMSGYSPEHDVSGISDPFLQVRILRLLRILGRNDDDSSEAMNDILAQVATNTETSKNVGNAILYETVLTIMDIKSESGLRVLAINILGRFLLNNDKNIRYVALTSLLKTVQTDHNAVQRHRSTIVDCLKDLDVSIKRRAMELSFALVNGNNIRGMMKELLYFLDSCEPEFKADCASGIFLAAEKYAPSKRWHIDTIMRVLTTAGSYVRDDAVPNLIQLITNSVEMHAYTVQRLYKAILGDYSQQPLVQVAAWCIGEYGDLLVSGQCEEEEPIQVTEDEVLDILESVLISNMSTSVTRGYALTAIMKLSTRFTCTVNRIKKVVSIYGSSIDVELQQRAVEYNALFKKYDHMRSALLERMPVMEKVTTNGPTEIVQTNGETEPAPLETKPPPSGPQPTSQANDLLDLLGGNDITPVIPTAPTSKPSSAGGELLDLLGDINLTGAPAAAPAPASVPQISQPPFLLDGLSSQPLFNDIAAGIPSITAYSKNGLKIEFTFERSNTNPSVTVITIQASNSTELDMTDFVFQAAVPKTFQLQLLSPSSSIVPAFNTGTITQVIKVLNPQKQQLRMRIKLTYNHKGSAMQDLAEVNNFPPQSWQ
# UniProt O75179: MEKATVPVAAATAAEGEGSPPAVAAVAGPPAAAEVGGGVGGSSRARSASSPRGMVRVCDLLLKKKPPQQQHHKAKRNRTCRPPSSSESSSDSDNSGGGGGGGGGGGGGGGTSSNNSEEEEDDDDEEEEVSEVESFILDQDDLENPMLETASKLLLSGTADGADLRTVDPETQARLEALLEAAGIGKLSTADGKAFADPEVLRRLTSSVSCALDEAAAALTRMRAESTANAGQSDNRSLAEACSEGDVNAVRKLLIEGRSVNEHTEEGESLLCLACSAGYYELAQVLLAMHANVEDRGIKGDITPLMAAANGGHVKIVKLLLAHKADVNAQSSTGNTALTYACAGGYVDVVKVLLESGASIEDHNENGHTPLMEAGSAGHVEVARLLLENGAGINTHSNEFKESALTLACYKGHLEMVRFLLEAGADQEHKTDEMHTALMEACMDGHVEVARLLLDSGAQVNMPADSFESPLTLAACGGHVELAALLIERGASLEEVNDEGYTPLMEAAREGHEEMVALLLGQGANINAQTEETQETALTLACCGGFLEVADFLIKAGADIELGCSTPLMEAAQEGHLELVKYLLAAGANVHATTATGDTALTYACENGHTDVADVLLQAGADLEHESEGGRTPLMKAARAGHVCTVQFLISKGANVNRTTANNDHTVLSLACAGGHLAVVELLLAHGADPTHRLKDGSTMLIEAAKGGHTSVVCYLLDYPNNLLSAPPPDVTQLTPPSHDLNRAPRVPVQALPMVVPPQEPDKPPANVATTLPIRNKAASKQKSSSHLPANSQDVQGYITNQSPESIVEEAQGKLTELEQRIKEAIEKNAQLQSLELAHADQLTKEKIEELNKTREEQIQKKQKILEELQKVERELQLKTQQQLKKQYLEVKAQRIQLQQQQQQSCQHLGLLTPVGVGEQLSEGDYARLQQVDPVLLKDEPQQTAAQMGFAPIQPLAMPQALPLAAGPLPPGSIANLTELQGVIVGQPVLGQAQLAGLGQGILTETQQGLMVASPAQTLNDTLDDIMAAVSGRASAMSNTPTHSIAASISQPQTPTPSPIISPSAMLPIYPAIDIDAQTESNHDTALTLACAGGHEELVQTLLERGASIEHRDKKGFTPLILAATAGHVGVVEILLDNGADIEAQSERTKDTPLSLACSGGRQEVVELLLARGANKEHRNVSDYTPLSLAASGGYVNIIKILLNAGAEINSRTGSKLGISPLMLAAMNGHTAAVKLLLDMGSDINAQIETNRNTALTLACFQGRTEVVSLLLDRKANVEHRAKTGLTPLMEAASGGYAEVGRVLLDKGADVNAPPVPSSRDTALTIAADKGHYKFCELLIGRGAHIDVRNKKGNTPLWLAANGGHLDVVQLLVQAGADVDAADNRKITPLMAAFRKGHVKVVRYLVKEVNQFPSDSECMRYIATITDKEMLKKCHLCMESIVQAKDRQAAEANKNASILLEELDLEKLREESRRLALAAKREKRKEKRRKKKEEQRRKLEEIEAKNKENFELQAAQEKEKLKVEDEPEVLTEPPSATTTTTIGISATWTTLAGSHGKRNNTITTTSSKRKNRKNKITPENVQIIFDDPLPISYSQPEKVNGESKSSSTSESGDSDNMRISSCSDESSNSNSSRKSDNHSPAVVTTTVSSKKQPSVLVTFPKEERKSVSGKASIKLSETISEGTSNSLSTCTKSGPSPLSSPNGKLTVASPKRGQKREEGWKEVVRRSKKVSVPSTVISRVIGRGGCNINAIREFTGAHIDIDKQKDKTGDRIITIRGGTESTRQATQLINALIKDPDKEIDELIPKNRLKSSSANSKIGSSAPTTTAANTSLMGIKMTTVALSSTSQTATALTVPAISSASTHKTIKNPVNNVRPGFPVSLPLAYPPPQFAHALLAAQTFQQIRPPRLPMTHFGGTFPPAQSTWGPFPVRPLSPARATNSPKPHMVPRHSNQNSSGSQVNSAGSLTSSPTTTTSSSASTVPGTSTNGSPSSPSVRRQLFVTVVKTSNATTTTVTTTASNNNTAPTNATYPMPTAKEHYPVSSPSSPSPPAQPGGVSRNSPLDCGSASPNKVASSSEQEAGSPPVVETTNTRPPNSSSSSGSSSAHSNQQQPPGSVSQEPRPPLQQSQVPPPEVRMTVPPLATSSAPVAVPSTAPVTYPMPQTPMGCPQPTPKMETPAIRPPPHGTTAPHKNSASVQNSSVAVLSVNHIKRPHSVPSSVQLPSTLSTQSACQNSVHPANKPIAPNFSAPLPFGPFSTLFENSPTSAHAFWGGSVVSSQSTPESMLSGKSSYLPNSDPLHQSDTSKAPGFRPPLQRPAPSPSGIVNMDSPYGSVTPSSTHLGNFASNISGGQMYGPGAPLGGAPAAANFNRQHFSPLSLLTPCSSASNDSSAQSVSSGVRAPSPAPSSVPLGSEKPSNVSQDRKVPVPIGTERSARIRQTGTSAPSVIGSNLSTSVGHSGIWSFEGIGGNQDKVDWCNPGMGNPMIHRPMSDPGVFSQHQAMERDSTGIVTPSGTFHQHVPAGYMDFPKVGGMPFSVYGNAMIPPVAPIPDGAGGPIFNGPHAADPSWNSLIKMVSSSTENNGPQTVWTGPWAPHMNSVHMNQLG
# UniProt Q4KMQ2: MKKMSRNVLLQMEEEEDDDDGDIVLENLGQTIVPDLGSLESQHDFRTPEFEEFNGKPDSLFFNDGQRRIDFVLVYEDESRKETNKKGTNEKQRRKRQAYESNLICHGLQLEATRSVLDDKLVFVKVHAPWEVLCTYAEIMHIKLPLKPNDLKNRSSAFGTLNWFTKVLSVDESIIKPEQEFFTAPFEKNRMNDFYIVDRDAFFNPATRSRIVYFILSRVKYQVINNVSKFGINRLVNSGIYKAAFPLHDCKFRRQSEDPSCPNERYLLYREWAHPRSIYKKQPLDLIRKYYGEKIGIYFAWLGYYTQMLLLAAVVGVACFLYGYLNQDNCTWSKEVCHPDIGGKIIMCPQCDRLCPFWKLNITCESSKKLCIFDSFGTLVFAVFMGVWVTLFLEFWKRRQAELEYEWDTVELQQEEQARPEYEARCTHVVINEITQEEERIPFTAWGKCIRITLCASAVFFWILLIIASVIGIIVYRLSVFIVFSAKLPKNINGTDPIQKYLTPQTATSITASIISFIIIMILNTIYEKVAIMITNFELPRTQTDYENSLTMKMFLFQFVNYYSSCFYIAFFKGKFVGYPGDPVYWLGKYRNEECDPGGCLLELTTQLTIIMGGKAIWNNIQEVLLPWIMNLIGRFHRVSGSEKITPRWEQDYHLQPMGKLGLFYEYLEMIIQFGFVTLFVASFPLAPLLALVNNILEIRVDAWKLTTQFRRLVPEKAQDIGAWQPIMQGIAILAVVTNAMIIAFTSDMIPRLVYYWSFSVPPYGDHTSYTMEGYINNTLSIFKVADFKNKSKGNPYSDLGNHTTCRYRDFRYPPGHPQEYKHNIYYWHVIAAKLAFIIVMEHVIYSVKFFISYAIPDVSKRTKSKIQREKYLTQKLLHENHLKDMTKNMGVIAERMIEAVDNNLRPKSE
# UniProt Q06481, whole entry, looked up: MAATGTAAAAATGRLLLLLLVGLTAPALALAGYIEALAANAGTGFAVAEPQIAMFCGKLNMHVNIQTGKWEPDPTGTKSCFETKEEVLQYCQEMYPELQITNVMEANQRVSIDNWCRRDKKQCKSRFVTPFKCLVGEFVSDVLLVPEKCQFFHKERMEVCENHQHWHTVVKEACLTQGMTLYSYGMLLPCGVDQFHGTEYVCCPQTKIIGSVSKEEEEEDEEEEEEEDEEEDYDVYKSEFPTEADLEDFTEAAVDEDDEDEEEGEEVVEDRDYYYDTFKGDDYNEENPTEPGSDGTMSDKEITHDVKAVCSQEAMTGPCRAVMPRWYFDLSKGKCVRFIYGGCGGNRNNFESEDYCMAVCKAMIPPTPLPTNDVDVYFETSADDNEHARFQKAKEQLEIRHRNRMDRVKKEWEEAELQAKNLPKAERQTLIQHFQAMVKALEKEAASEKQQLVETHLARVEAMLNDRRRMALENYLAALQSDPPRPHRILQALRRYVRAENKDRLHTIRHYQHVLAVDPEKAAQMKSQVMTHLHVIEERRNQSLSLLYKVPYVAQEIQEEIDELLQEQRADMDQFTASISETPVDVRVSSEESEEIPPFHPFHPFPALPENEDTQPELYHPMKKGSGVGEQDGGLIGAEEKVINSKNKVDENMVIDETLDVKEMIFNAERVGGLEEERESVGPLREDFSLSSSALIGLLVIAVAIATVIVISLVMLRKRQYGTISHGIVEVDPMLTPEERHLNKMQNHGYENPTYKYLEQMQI
# UniProt O75843: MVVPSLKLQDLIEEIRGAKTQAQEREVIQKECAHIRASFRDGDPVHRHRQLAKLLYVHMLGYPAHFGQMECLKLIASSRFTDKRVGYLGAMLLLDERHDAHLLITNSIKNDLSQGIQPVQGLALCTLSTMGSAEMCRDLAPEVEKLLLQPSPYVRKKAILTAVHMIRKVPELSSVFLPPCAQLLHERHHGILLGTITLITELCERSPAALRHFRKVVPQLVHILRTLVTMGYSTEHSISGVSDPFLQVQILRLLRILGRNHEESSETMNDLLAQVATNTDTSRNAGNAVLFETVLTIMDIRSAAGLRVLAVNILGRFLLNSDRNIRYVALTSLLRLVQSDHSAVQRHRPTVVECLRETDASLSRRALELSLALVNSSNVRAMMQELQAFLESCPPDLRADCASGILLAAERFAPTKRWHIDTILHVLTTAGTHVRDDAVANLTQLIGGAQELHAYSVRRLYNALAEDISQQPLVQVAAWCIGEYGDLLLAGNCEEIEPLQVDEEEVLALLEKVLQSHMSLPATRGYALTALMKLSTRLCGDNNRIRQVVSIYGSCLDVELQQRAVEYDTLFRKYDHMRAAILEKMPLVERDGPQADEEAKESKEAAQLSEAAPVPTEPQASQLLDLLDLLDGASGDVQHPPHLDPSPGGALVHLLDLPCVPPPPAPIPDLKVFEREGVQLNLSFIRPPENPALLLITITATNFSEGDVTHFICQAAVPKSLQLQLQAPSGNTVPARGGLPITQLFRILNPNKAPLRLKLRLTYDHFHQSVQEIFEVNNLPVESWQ
# UniProt P39687: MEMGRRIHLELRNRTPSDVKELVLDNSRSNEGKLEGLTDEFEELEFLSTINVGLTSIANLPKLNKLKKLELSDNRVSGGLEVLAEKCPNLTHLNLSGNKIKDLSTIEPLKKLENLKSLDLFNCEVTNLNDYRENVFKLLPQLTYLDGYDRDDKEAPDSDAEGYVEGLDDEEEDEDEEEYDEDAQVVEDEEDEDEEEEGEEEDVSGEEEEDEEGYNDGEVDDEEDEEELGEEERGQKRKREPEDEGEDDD
# The list shows a part of the results.
# Compound: Cc1cc(ccc1-c1ccccc1)C(=O)N1CCCN(CC1)C(=O)CCl [compound 10]
# Assay: probe-labelled cysteine peptide fold change vs DMSO (competition) (log2 fold change); higher = less target engagement (more negative = stronger competition)
# Details: THP-1, incubation time: 4 h
# 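Note: competitive profiling in live THP-1 cells: cysteine peptides tagged with an iodoacetamide desthiobiotin (IA-DTB) probe, intensity after compound treatment relative to DMSO-treated cells.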
Target,probe-labelled cysteine peptide fold change (10 µM),probe-labelled cysteine peptide fold change (50 µM)
ANKRD16_Q6P6B7_32+43_EELQAAGGCPGPAGDTLLHCAAR (UniProt Q6P6B7),-0.341,-0.618
APAF1_O14727_203_LQNLCTR (UniProt O14727),0.118,0.115
ANKRD27_Q96NW4_795_CLLDSNAK (UniProt Q96NW4),0.214,-0.253
AOAH_P28039_329_RNHCNHR (UniProt P28039),-0.129,0.26
ANXA4_P09525_108_GAGTDEGCLIEILASR (UniProt P09525),0.0406,0.0244
AOC1_P19801_181_CLAFTDVAPR (UniProt P19801),-0.0889,-0.0715
ANKMY2_Q8IV38_74_HGADVNCHQHEHGYTALMFAALSGNK (UniProt Q8IV38),0.0756,0.345
AP1G1_O43747_353_STIVDCLK (UniProt O43747),-0.0326,-0.0358
APEX1_P27695_310_ALGSDHCPITLYLAL (UniProt P27695),0.0131,-0.113
AP1G1_O43747_70_LLYMHMLGYPAHFGQLECLK (UniProt O43747),0.00199,0.107
ANKRD45_Q5TZF3_116_GYTLLHCAAAWGR (UniProt Q5TZF3),0.272,0.322
AP3D1_O14617_1117_SIQGHHVCLLVK (UniProt O14617),0.03,-0.103
APEH_P13798_594_DVQFAVEQVLQEEHFDASHVALMGGSHGGFISCHLIGQYPETYR (UniProt P13798),0.218,-0.0284
APBB1IP_Q7Z5R6_355_DLACFIQFENVNIYYGTQHK (UniProt Q7Z5R6),0.105,0.0924
ANKRD11_Q6UB99_1339_ESACLPEK (UniProt Q6UB99),-0.0313,-0.174
APOBEC3G_Q9HC16_261_HAELCFLDVIPFWK (UniProt Q9HC16),-0.0342,-0.0566
AP2A1_O95782_397_AADLLYAMCDR (UniProt O95782),0.0796,-0.00803
AP2B1_P63010_144_TAAVCVAK (UniProt P63010),0.012,-0.112
AP2A2_O94973_932_LCELLSAQF (UniProt O94973),0.018,-0.00051
AP1B1_Q10567_57_DVSALFPDVVNCMQTDNLELK (UniProt Q10567),0.133,-0.0282
AP2B1_P63010_129_CLKDEDPYVR (UniProt P63010),-0.000581,-0.52

Target,probe-labelled cysteine peptide fold change (10 µM),probe-labelled cysteine peptide fold change (50 µM)
APEX2_Q9UBZ4_45_ILDELDADIVCLQETK (UniProt Q9UBZ4),-0.504,0.0664
API5_Q9BZZ5_345_LQFSYVECLLYSFHQLGR (UniProt Q9BZZ5),0.555,0.966
ANKRD27_Q96NW4_795_CLLDSNAKPNKK (UniProt Q96NW4),0.102,-0.773
AP1G1_O43747_392_ELLYFLDSCEPEFK (UniProt O43747),0.183,0.273
ANLN_Q9NQW6_978_CQVNSSVEER (UniProt Q9NQW6),0.153,0.239
AP3B1_O00203_507_ASILWLIGENCER (UniProt O00203),0.00997,0.184
ANKRD17_O75179_1418_EVNQFPSDSECMR (UniProt O75179),-0.0202,0.0276
APIP_Q96GX9_147_CTSGGYYR (UniProt Q96GX9),0.069,0.0716
APAF1_O14727_675_FIATCSVDKK (UniProt O14727),0.277,0.113
APEH_P13798_361_QLGENFSGIYCSLLPLGCWSADSQR (UniProt P13798),0.149,0.291
AP2B1_P63010_95_DCEDPNPLIR (UniProt P63010),-0.00825,0.246
AP5S1_Q9NUS5_27_VLYSCVFGAEK (UniProt Q9NUS5),0.0416,-0.0255
APC_P25054_661_ENNCLQTLLQHLK (UniProt P25054),-0.139,-0.186
AP5M1_Q9H0R1_354_NNFEFCEAHIPFYNR (UniProt Q9H0R1),0.000119,0.0553
ANKS1A_Q92625_75_GPNVNCVDSTGYTPLHHAALNGHK (UniProt Q92625),0.145,-0.0279
APAF1_O14727_662+663_AHEDEVLCCAFSTDDR (UniProt O14727),0.237,0.117
AP2M1_Q96CW1_212_SYLSGMPECK (UniProt Q96CW1),-0.0637,0.212
AP3D1_O14617_1103_VDSCASMYSR (UniProt O14617),-0.132,-0.249
APOBEC3C_Q9NRW3_70_CFLSWFCDDILSPNTK (UniProt Q9NRW3),0.106,0.12
APMAP_Q9HDC9_149_TRDDEPVCGRPLGIR (UniProt Q9HDC9),-0.0814,0.0194
APEH_P13798_30_QPALSAACLGPEVTTQYGGQYR (UniProt P13798),0.0938,0.25

Target,probe-labelled cysteine peptide fold change (10 µM),probe-labelled cysteine peptide fold change (50 µM)
ANKRD10_Q9NXR5_140_SGSLECISALVANGAHVDLR (UniProt Q9NXR5),-0.235,-0.443
ANO6_Q4KMQ2_426_CTHVVINEITQEEER (UniProt Q4KMQ2),-0.216,-0.0038
APLP2_Q06481_133_CLVGEFVSDVLLVPEK (UniProt Q06481),-0.0811,0.164
ANKRD44_Q8N8A2_368+388_CGIHSMFPLHLAALNAHSDCCR (UniProt Q8N8A2),-0.329,-0.698
ANKRD50_Q9ULJ7_941_DIVELLFSHGADVNCK (UniProt Q9ULJ7),0.0799,0.113
ANXA1_P04083_324_MYGISLCQAILDETK (UniProt P04083),-0.0121,0.0864
ANO6_Q4KMQ2_105_RQAYESNLICHGLQLEATR (UniProt Q4KMQ2),-0.065,-0.188
AP1G2_O75843_125_NDLSQGIQPVQGLALCTLSTMGSAEMCR (UniProt O75843),0.109,0.244
APLP2_Q06481_343_FIYGGCGGNR (UniProt Q06481),-0.427,-0.392
AP1G2_O75843_354_HRPTVVECLR (UniProt O75843),-0.0711,-0.0489
ANKRD17_O75179_1622_ISSCSDESSNSNSSR (UniProt O75179),0.381,0.134
AP2M1_Q96CW1_251_QSIAIDDCTFHQCVR (UniProt Q96CW1),0.122,0.000365
AP3D1_O14617_208_EKLEDPDPGVQSAAVNVICELAR (UniProt O14617),-0.0755,0.0581
AP1B1_Q10567_930_CRAPEVSQHVYQAYETILK (UniProt Q10567),0.104,-0.118
ANKMY2_Q8IV38_41_VNCLDENGMTPLMHAAYK (UniProt Q8IV38),0.163,-0.0437
ANO6_Q4KMQ2_250_AAFPLHDCK (UniProt Q4KMQ2),-0.187,-0.184
AOC1_P19801_391_YLDVGWGLGSVTHELAPGIDCPETATFLDTFHYYDADDPVHYPR (UniProt P19801),0.166,0.4
ANP32A_P39687_87_CPNLTHLNLSGNK (UniProt P39687),0.0778,0.0507
AOC1_P19801_417_ALCLFEMPTGVPLRR (UniProt P19801),-0.051,0.0426
ANKLE2_Q86XL3_176_TCSVPPSDTDTYR (UniProt Q86XL3),0.0562,0.00564
ANKRD11_Q6UB99_1712_EVLPASPRPDQSRPTGVPTPTSVLSCPSYEEVMHTPR (UniProt Q6UB99),0.0549,0.219

Target,probe-labelled cysteine peptide fold change (10 µM),probe-labelled cysteine peptide fold change (50 µM)
AP3S1_Q92572_47_RDENVCNFLEGGLLIGGSDNK (UniProt Q92572),-0.0668,0.142
AP2B1_P63010_123_ITEYLCEPLRK (UniProt P63010),-0.0728,-0.143
ANP32E_Q9BTT0_87_CPNLTYLNLSGNK (UniProt Q9BTT0),0.00877,-0.115
ANXA4_P09525_198_FLTVLCSR (UniProt P09525),0.162,0.00477
APOBEC3G_Q9HC16_221_GRHETYLCYEVER (UniProt Q9HC16),0.0238,-0.0407
ANKRD50_Q9ULJ7_161_LRDPAVQSLLQPGECER (UniProt Q9ULJ7),0.0521,-0.0666
APOH_P02749_124_CTEEGK (UniProt P02749),-0.557,-0.288
ANP32B_Q92688_123_SLDLFNCEVTNLNDYRESVFK (UniProt Q92688),-0.0375,-0.493
AP2A1_O95782_533_FHLCSVATR (UniProt O95782),-0.326,0.254
ANXA4_P09525_315_KVLLVLCGGDD (UniProt P09525),-0.0611,-0.661
APLP2_Q06481_310_AVCSQEAMTGPCR (UniProt Q06481),-0.469,-0.85
ANKRD44_Q8N8A2_704_EANVDTVDILGCTALHR (UniProt Q8N8A2),-0.0426,-0.232
ANKRD44_Q8N8A2_547_QCLELLLER (UniProt Q8N8A2),0.177,-0.299
APAF1_O14727_177_DHSLLEGCFPGGVHWVSVGK (UniProt O14727),-0.0502,-0.155
AP3D1_O14617_137_DLSSPSQYDTGVALTGLSCFVTPDLAR (UniProt O14617),0.049,-0.394
ANXA7_P20073_363_LGTDESCFNMILATR (UniProt P20073),0.0712,-0.0528
ANKLE2_Q86XL3_844_RLFLFGEEPSKLDQDVLAALECADVDPHQFPAVHR (UniProt Q86XL3),-0.195,-0.319
ANXA6_P08133_552_FMTILCTR (UniProt P08133),0.0107,0.0333
ANP32A_P39687_123_SLDLFNCEVTNLNDYRENVFK (UniProt P39687),0.184,-0.114
ANKLE2_Q86XL3_454_TPEDVICER (UniProt Q86XL3),-0.0836,-0.0782
ANKRD44_Q8N8A2_819_FIGNPFTPLHCAIINDHGNCASLLLGAIDSSIVSCR (UniProt Q8N8A2),-0.184,-0.0251
